Measured values published in patent publication US20200277404A1, “COMPOSITIONS AND METHODS FOR REGULATION OF IMMUNE CELL ACTIVATION AND PROLIFERATION” (MONELL CHEMICAL SENSES CENTER, priority 2017, published 2020).
At least one compound was matched to its structure with a doubt left.

System: bitter receptors (T2Rs)
Assay: Expression of bitter receptors (T2Rs) in Raw264.7 cells treated with LPS or DEX
Format: cell-based
Conditions: mouse monocyte/macrophage Raw264.7 cell line, FIG. 4
Protocol: The mouse monocyte/macrophage Raw264.7 cell line was also used to study T2Rs. Raw264.7 cells were treated with lipopolysaccharide (LPS) and dexamethasone (DEX).

## C[C@@H]1C[C@H]2[C@@H]3CCC4=CC(=O)C=C[C@]4(C)[C@@]3(F)[C@@H](O)C[C@]2(C)[C@@]1(O)C(=O)CO [DEX, dexamethasone]
  expression levels of some bitter receptors (T2Rs): moderately induced
